In the supplement of paper PMC8256030:
“And” between values parts separate entries of the source, which are not always exact repeats. Equal values may be shown once. Where a name gives a salt, the structure may show the parent alone. This is one part of the list. Repeats in this data set agree poorly, so a single value says little.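 HEK293T cells were given each compound shortly before transfection with a reporter in which red mCherry is followed by the SARS-CoV-2 frameshift element and then GFP in the −1 frame, so GFP appears only after frameshifting.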

Legend:
[1] = tested on: HEK293T; test: percent viability (nuclei count) relative to control; higher = more viable cells; details: 10 µM; 24 h
[2] = tested on: SARS-CoV-2 -1 PRF reporter mCherry-FSE-GFP(-1); test: mCherry (red) intensity as percent of control; higher = higher upstream reporter expression; details: 10 µM; 24 h; HEK293T
[3] = tested on: SARS-CoV-2 -1 PRF reporter mCherry-FSE-GFP(-1); test: percent effect, decrease of GFP/mCherry ratio (-1 PRF reporter) relative to controls; higher = stronger frameshift inhibition; details: 10 µM; 24 h; HEK293T

Structure (SMILES) | percent viability [1] | mCherry [2] | percent effect [3]
CC[N+]1(CC)CCC(OC(=O)C(O)(c2ccccc2)c2ccccc2)C1 (centres undefined) [benzilonium] | 345% | 56.6% | -1.72%
C[C@]12CC[C@H]3[C@@H](CCC4=CC(=O)CC[C@@]43C)[C@@H]1CC[C@@H]2O[Si](C)(C)C [silandrone] | 106% | 86.3% | -3.91%
CNC(C)Cc1ccccc1OC (centres undefined) [methoxyphenamine] | 202% | 102% | -2.13%
CN1[C@@H]2CC[C@H]1C[C@@H](OC(=O)C(CO)c1ccccc1)C2 (some centres undefined) | 248% | 80.7% | -2.9%
CN1CCc2cc3c(cc2C1O)OCO3 (centres undefined) | 308% | 131% | -1.36%
O=C(Nc1ccc(Br)cc1)c1cc(Br)cc(Br)c1O [tribromsalan] | 155% | 61.7% | -7.59%
Cc1ccc(-c2nc3ccc(C)cn3c2CC(=O)N(C)C)cc1 [zolpidem] | 224% and 212% | 104% and 107% | 0.0613% and 0.00515%
CC1(C)C(C=C(Cl)Cl)C1C(=O)OC(C#N)c1cccc(Oc2ccccc2)c1 (centres undefined) | 343% | 107% | 2.01%
Oc1ccc2c3c1O[C@H]1c4oc5ccccc5c4C[C@@]4(O)[C@@H](C2)N(CC2CC2)CC[C@]314 [Naltriben methanesulfonate hydrate] | 291% | 76.1% | -3.1%
C=CCN=C=S | 163% | 98% | -5.83%
CCNC(C)Cc1cccc(C(F)(F)F)c1 (centres undefined) [fenfluramine] | 236% | 104% | 2.58%
COP(=S)(OC)Oc1cc(Cl)c(Cl)cc1Cl [fenclofos] | 153% | 101% | -2.86%
COP(=S)(OC)Oc1ccc(Sc2ccc(OP(=S)(OC)OC)cc2)cc1 [temefos] | 177% | 89.3% | 0.928%
O=C(CC1NCCCC1O)Cn1cnc2cc(Br)c(Cl)cc2c1=O (centres undefined) [Halofuginone] | 34% | 763% | -25.4%
O=C(N/N=C/c1ccc([N+](=O)[O-])o1)c1cc([N+](=O)[O-])cc([N+](=O)[O-])c1O | 54.9% | 120% | -0.526%
CNC(C)(C)Cc1ccccc1 [mephentermine] | 279% | 124% | 3.69%
C[C@@H]1CC[C@H]2[C@@H](C)C(=O)O[C@@H]3O[C@@]4(C)CC[C@@H]1[C@]32OO4 [artemisinin] | 183% | 103% | -0.457%

Structure (SMILES) | percent viability [1] | mCherry [2] | percent effect [3]
CCC1(CC)C(=O)C=CNC1=O [pyrithyldione] | 244% | 91.3% | 0.834%
C[C@H]1[C@H]2Cc3ccc(O)cc3[C@]1(C)CCN2CC1CC1 [cyclazocine] | 32.4% | 169% | -3.55%
O=C1CCCN1CC#CCN1CCCC1 [Oxotremorine] | 237% | 87.6% | -3.04%
CCOC(=O)Nc1ccc(NCc2ccc(F)cc2)cc1N [retigabine] | 237% | 96.5% | 3.34%
CC(C)C[C@H]1C(=O)N2CCC[C@H]2[C@]2(O)O[C@](NC(=O)[C@@H]3C=C4c5cccc6[nH]c(Br)c(c56)C[C@H]4N(C)C3)(C(C)C)C(=O)N12 [Bromocriptine mesylate] | 283% | 53.6% | -1.43%
CC(C)NC1CCn2c(=O)[nH]c3cccc(c32)C1O (centres undefined) [zilpaterol] | 55.1% | 97.3% | -2.72%
C[C@@H]1CC2=CC(=O)CC[C@@H]2[C@H]2CC[C@@]3(C)[C@@H](CC[C@]3(C)O)[C@@H]21 [mibolerone] | 108% | 78.4% | -10.7%
CC(C)c1c(CN(C)C(C)Cc2ccccc2)n(C)n(-c2ccccc2)c1=O (centres undefined) [famprofazone] | 311% | 109% | 3.71%
CCc1cc2c(s1)N(C)C(=O)CN=C2c1ccccc1Cl [clotiazepam] | 217% | 99.9% | 3.64%
O=C1C[C@@H]2OCC=C3CN4CC[C@]56c7ccccc7N1[C@H]5[C@H]2[C@H]3C[C@H]46 [Strychnine·HCl] | 274% | 94.9% | 2.93%
Cc1ccc(N=CN(C)C=Nc2ccc(C)cc2C)c(C)c1 | 169% | 91.4% | -14.9%
CCOc1cc(C=O)ccc1O | 342% | 88.7% | -0.253%
c1ccc2c(c1)sc1ccccc12 | 120% | 102% | -1.69%
CN(c1nc2ccccc2s1)C1CCN(C[C@H](O)COc2ccc(F)c(F)c2)CC1 [lubeluzole] | 126% | 57.6% | -14.3%
CC(C)NCC(O)c1cccc(O)c1 (centres undefined) [metaterol] | 325% | 63.3% | -0.109%
C[C@@H]1C[C@@]2(C)[C@@H](CC[C@@H]3[C@@H]2CC[C@]2(C)[C@@H](O)CC[C@@H]32)CC1=O [drostanolone] | 258% | 98.2% | -3.69%
